The values below come from publication doi:10.1101/2025.02.28.640929.

By UniProt entry, the sequences of proteins in these tests, tags left out.
UniProt O60573: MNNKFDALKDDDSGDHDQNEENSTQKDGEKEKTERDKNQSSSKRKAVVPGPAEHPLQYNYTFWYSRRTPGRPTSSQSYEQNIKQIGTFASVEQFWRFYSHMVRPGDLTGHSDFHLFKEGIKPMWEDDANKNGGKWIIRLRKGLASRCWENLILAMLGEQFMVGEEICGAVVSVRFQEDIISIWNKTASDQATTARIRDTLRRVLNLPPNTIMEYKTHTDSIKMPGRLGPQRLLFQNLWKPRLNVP

The target of the test is T1, GRB10-interacting GYF protein 2 (GIGYF2), human, endogenous (human (endogenous in HEK293T)) (UniProt Q6Y7W6).
T1 sequence: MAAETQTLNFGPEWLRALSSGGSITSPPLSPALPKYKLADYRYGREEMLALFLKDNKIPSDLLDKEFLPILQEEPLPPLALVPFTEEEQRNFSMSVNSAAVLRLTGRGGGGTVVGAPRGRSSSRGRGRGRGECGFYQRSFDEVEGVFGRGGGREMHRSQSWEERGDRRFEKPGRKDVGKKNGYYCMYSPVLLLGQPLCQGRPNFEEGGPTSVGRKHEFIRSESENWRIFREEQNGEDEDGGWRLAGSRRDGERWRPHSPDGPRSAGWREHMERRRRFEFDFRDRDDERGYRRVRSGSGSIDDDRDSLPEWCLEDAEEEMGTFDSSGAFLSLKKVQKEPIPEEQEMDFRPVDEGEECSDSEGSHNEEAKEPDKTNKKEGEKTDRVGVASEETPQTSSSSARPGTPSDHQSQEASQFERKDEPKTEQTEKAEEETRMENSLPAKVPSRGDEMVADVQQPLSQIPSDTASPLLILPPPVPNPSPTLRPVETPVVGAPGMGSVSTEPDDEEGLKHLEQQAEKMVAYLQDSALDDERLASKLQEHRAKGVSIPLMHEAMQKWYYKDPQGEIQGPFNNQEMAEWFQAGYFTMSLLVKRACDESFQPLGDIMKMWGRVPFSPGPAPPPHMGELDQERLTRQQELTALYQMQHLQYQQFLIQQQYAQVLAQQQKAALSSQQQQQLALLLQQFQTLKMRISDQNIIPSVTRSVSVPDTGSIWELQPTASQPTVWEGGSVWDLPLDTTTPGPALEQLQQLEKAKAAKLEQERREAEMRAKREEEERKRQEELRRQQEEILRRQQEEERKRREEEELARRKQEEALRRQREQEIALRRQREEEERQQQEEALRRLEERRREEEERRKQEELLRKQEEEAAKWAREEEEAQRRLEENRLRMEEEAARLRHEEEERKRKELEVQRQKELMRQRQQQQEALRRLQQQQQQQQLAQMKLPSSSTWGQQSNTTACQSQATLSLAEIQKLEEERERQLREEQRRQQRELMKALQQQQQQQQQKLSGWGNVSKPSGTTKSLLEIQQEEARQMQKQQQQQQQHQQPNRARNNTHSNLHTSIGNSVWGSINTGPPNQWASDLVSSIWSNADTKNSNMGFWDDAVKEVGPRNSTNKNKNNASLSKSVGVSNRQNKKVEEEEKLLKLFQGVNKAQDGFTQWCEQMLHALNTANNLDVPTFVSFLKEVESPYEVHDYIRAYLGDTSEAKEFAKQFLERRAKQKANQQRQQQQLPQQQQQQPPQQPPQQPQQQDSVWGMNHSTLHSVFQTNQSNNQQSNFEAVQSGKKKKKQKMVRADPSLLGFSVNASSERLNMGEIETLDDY
In words: co-IP.

Results are given in words; binding and its absence hold for the method and conditions named. In cells and extracts the contact can be indirect. Some results given as binding are weak or reduced against the parent protein; the word gives no strength.

As to “4EHP (eIF4E homologous protein, eIF4E2), endogenous (from UniProt O60573 1-245)”, the binding result was “binds”.

B1: Zinc-finger protein 598 (ZNF598), endogenous (protein, UniProt Q86UK7 1-904)
chain: MAAAGGAEGRRAALEAAAAAAPERGGGSCVLCCGDLEATALGRCDHPVCYRCSTKMRVLCEQRYCAVCREELRQVVFGKKLPAFATIPIHQLQHEKKYDIYFADGKVYALYRQLLQHECPRCPELPPFSLFGDLEQHMRRQHELFCCRLCLQHLQIFTYERKWYSRKDLARHRMQGDPDDTSHRGHPLCKFCDERYLDNDELLKHLRRDHYFCHFCDSDGAQDYYSDYAYLREHFREKHFLCEEGRCSTEQFTHAFRTEIDLKAHRTACHSRSRAEARQNRHIDLQFSYAPRHSRRNEGVVGGEDYEEVDRYSRQGRVARAGTRGAQQSRRGSWRYKREEEDREVAAAVRASVAAQQQEEARRSEDQEEGGRPKKEEAAARGPEDPRGPRRSPRTQGEGPGPKETSTNGPVSQEAFSVTGPAAPGCVGVPGALPPPSPKLKDEDFPSLSASTSSSCSTAATPGPVGLALPYAIPARGRSAFQEEDFPALVSSVPKPGTAPTSLVSAWNSSSSSKKVAQPPLSAQATGSGQPTRKAGKGSRGGRKGGPPFTQEEEEDGGPALQELLSTRPTGSVSSTLGLASIQPSKVGKKKKVGSEKPGTTLPQPPPATCPPGALQAPEAPASRAEGPVAVVVNGHTEGPAPARSAPKEPPGLPRPLGSFPCPTPQEDFPALGGPCPPRMPPPPGFSAVVLLKGTPPPPPPGLVPPISKPPPGFSGLLPSPHPACVPSPATTTTTKAPRLLPAPRAYLVPENFRERNLQLIQSIRDFLQSDEARFSEFKSHSGEFRQGLISAAQYYKSCRDLLGENFQKVFNELLVLLPDTAKQQELLSAHTDFCNREKPLSTKSKKNKKSAWQATTQQAGLDCRVCPTCQQVLAHGDASSHQALHAARDDDFPSLQAIARIIT
Take B1: the binding entry was “binds”.
